This note sets out measurements from PMC5144080.

Amino acid sequences for entries named in this document (tags omitted).
UniProt Q9Y6K9: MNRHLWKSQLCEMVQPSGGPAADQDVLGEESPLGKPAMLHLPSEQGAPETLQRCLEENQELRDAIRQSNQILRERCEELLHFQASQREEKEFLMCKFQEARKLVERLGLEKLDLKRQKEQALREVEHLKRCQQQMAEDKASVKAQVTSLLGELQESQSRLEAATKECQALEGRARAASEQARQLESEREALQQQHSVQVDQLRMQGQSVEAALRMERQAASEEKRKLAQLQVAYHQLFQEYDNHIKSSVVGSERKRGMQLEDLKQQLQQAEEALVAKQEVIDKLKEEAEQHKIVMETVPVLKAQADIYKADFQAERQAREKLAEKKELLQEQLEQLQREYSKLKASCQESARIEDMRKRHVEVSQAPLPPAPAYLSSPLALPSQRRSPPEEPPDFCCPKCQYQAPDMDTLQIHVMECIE
UniProt P49841: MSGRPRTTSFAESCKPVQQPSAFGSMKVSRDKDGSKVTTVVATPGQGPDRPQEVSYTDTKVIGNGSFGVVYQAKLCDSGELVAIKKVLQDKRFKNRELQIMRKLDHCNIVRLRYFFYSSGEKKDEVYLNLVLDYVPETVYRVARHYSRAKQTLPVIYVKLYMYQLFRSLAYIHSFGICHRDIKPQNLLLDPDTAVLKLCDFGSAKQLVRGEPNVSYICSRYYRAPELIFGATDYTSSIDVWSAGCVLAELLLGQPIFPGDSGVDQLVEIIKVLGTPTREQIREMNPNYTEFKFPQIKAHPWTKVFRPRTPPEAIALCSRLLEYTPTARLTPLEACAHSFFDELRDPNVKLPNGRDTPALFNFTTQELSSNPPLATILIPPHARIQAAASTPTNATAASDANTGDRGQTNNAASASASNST

These are yes or no findings as the source states them, for the method shown. Binding seen in cells or lysates may run through a third protein. Some results given as binding are weak or reduced against the parent protein; the word gives no strength.

In one assay the target is NEMO-TagRFP (human) (UniProt Q9Y6K9). Kind of assay: FRET or BRET; FLIM-FRET on a widefield FLIM set-up (Supplementary Figure 1b).
Assay [1] deals with GST-fused NEMO, full length (human) (UniProt Q9Y6K9). Kind of assay: pull-down; GST-fused NEMO or its deletion mutants mixed with cell lysates containing GSK-3β; overnight incubation; GST-NEMO eluted from the resin; GSK-3β in the eluate detected by immune blotting; only the target purified.
For assay [2], the target named is glycogen synthase kinase-3β (GSK-3β), endogenous (human (endogenous in HEK293)) (UniProt P49841). Kind of assay: co-IP; immune-precipitation of endogenous GSK-3β from lysates of HEK293 cells, untreated or stimulated with TNFα (10 ng/ml) for 30 min; immune complexes blotted for NEMO and GSK-3β.
For assay [3], the target named is NF-κB Essential Modifier (NEMO/IKKγ), endogenous (human (endogenous in HEK293)) (UniProt Q9Y6K9). Kind of assay: co-IP; lysates immunoprecipitated with anti-NEMO and blotted with anti-NEMO, anti-IKKβ and anti-GSK-3β; cells pretreated for 2 h with SB216763 (1 μM) or not, then stimulated with TNFα (10 ng/ml) for 1 h.
In assay [4] the target is GFP-tagged wild-type NEMO (human) (UniProt Q9Y6K9). Description: co-IP; HEK293 cells transfected with GFP-tagged wild-type or S8, 17, 31A NEMO; anti-GFP immunoprecipitation (GFP Isolation Kit, Miltenyi); resting or TNFα-stimulated (10 ng/ml) cells; for p47, co-transfected with HA-tagged ubiquitin species; immunoblotting. Background: In western blotting, separated proteins are transferred to a membrane and probed.

For the substance “GFP-GSK-3β (from UniProt P49841 1-420) (enzyme)”, the binding entry with NEMO-TagRFP (human) is on record as “binds”.
As for “GSK-3β in cell lysates (GST pull-down) (from UniProt P49841 1-420) (enzyme)”, in assay [1], the binding entry was “binds”.
As to “NF-κB Essential Modifier (NEMO/IKKγ), endogenous (from UniProt Q9Y6K9 1-419)”, the binding entry in assay [2] is “binds”.
Take “glycogen synthase kinase-3β (GSK-3β), endogenous (from UniProt P49841 1-420) (enzyme)”: the binding result in assay [3] and in assay [4] was “binds” each time.
